PMC7819943, “Rice protein-binding microarrays: a tool to detect cis-acting elements near promoter regions in rice”
Some of the results follow.

Sequences of proteins named here, by UniProt entry; tags and fusion partners are left off.
UniProt Q0JBA9, entry or part of it: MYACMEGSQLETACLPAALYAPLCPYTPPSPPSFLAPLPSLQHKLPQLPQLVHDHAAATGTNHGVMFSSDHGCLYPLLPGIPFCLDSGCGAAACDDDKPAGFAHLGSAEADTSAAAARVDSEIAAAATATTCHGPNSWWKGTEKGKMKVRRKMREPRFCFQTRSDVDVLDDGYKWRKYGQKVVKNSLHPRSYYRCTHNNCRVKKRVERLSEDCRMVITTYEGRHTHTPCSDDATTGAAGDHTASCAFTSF

What follows are sequences tested against OsWRKY34 (Oryza sativa, UniProt Q0JBA9 1-250) (assay: protein-binding microarray (RPBM); PBS, 2% BSA, 51.3 ng/ul salmon testes DNA, 50 uM zinc acetate, 200 nM TF, 25 C, 1 h; high values mean tight binding). Details: protein: recombinant; tags: N-terminal polyhistidine and DsRed monomer fusion (pET32a); label: CyDye5-dUTP incorporated in the synthesized complementary strand; 3' TTTTT single-stranded linker to array surface; dsDNA, one strand shown.
In short: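 Binding signal is reported as fluorescence intensity per feature (arbitrary units) from an Axon 4000B scanner. Incubation used 200 nM of each Ni–NTA-purified, N-terminally polyhistidine- and DsRed-fused transcription factor from E. coli BL21-CodonPlus on a double-stranded custom Agilent array for 1 h at 25 °C, with 50 µM zinc acetate in the buffer, followed by washing.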

Sequence	binding signal
GTCGCTTGTCGTTGTTGCCCTGAACTGTTGGTGCTGGTTCCGGAGTCACCTAGTGCAG	9320 fluorescence intensity (a.u.)
TCCTGTGTTTTTCCTGTGGTTCAATCAAACGGTCATTCCTCGGAGTCACCTAGTGCAG	9910 fluorescence intensity (a.u.)
AGTTGTTGTTTCATAGTTGAGTTTTGGTCGTGTCAACATTCGGAGTCACCTAGTGCAG	12900 fluorescence intensity (a.u.)
CTTTTAATTTCCCTCGTGTCATGTATAGTAGTACTCCACCCGGAGTCACCTAGTGCAG	8900 fluorescence intensity (a.u.)
CAAGCATTTAATCTTCTTTTGTGTGTGTTGTTTTTTTTCTCGGAGTCACCTAGTGCAG	9250 fluorescence intensity (a.u.)
TGAATAGTACTTTATGTGTATGTGTGACGTGACTATTTTCCGGAGTCACCTAGTGCAG	8990 fluorescence intensity (a.u.)
TTCATCATCCTCCATTTCTACACCGAGAATCGAACCACGACGGAGTCACCTAGTGCAG	9200 fluorescence intensity (a.u.)
TCTCGTCCACAGTTTCACGTCATTGGATACATGTTTCTATCGGAGTCACCTAGTGCAG	10000 fluorescence intensity (a.u.)
ACATTGTTGTGTGTGGGTCATTTGTTCATTCATTTGATTCCGGAGTCACCTAGTGCAG	11600 fluorescence intensity (a.u.)
TCACGTTGGCGCCGCGCACGCACACCTCGCCGCTCTTCCCCGGAGTCACCTAGTGCAG	8720 fluorescence intensity (a.u.)
TATAAGATTGTGGTTTATCCGTTTTTCCTGCTTTTCCAAACGGAGTCACCTAGTGCAG	10200 fluorescence intensity (a.u.)
TCATCAGTCATCACCCACATCGCTCGCGCTCCCATTAAAACGGAGTCACCTAGTGCAG	8990 fluorescence intensity (a.u.)
TTAATATATTTTCCTGTAATCTATTTTCTTTTTCTTTCTTCGGAGTCACCTAGTGCAG	8570 fluorescence intensity (a.u.)
GCAGTAGTTCCCGTCCCGATTGAATCGCACCGCCAGCACCCGGAGTCACCTAGTGCAG	8060 fluorescence intensity (a.u.)
CTCTAAACCTCCATCGCACAGTTTCTATCCGATCACCTTCCGGAGTCACCTAGTGCAG	9350 fluorescence intensity (a.u.)
CGCACCCATCTCGTCCAGTCTTTCTCCGTCGTCTTCCTCTCGGAGTCACCTAGTGCAG	11600 fluorescence intensity (a.u.)
CAGTTCGTTTGACTTGGTTTCTGGCCGCGACGTCTGCTTTCGGAGTCACCTAGTGCAG	9060 fluorescence intensity (a.u.)
GGACTTATTCCTATGCGTGCGAATTCTACTCGCGATATATCGGAGTCACCTAGTGCAG	10100 fluorescence intensity (a.u.)
CCTATGGGTTCCACACCTTGGGGTGGGTAGACCGCGCCACCGGAGTCACCTAGTGCAG	8900 fluorescence intensity (a.u.)
CTCTCTCTCTCCTCGCGTGACTCGCGCGTGCCCTCGCCGCCGGAGTCACCTAGTGCAG	8130 fluorescence intensity (a.u.)
GCCTGGGATGTTGGGTGCCTTTTCGTTGTCCCTCGTCATTCGGAGTCACCTAGTGCAG	8560 fluorescence intensity (a.u.)

Two entries picked at random from the list so far:
Sequence	binding signal
CGCACCCATCTCGTCCAGTCTTTCTCCGTCGTCTTCCTCTCGGAGTCACCTAGTGCAG	11600 fluorescence intensity (a.u.)
CAGTTCGTTTGACTTGGTTTCTGGCCGCGACGTCTGCTTTCGGAGTCACCTAGTGCAG	9060 fluorescence intensity (a.u.)

(next part)

Sequence	binding signal
CTCGCGTTTCTGTCTTTTTCTCATGACCCCGAATTTCTCTCGGAGTCACCTAGTGCAG	9950 fluorescence intensity (a.u.)
CATCCTATGCTGAGATTTCTTCGTCGCCCGGTGGCCCCGGCGGAGTCACCTAGTGCAG	8080 fluorescence intensity (a.u.)
ATTAATTTCTCTTTCTTTTCTTTCTTCTTCTCCTTTTTGTCGGAGTCACCTAGTGCAG	10600 fluorescence intensity (a.u.)
CCCCTCCTCGCCGCGCCGCCATCTAGGGTTTCGTCTTCTCCGGAGTCACCTAGTGCAG	9470 fluorescence intensity (a.u.)
ACTGTGCAATTGGTTTTTTTCCATATTTAATGCTTCATATCGGAGTCACCTAGTGCAG	13200 fluorescence intensity (a.u.)
CTATTTTTCTTCTTCCAACCAATCCAGTCCGTCCAGAATACGGAGTCACCTAGTGCAG	9290 fluorescence intensity (a.u.)
CTAGTTGTGTTTGTTAATTTCTTTCTATACATGGGTTACCCGGAGTCACCTAGTGCAG	11700 fluorescence intensity (a.u.)
ACGTACACTCTACCCACACCACCTCGCTCACTCGCTCGCTCGGAGTCACCTAGTGCAG	10900 fluorescence intensity (a.u.)
CACCTCACCGTCGCCAGTCGCGCTGCCCAGCCCGCTAGCCCGGAGTCACCTAGTGCAG	13400 fluorescence intensity (a.u.)
CCAAATTGTTGTTGCCACATCCTTGATCGTATGCTTCTTACGGAGTCACCTAGTGCAG	8420 fluorescence intensity (a.u.)
AGATTCTGGCTTTTATTTTTGATGCTCTACTCAATTCGATCGGAGTCACCTAGTGCAG	9380 fluorescence intensity (a.u.)
TCCTGTATCTGTACGAGTTTTATTTAGTTTCTTTTTTTAACGGAGTCACCTAGTGCAG	9230 fluorescence intensity (a.u.)
CTCTCTGCTTCACTTCTCTGCTTGTGTTGTTCTGTTGTTCCGGAGTCACCTAGTGCAG	13500 fluorescence intensity (a.u.)
AATACTCTTTTCATCCGGTCCGCGAGTGATATTATCACTCCGGAGTCACCTAGTGCAG	9000 fluorescence intensity (a.u.)
TTTATTCAATCCTCACATTCTCAGTTTATTTTATTTTATTCGGAGTCACCTAGTGCAG	8920 fluorescence intensity (a.u.)
AACGGTCAAATATGTGCTAAAAAGTCAACGGTGTCAAATACGGAGTCACCTAGTGCAG	11300 fluorescence intensity (a.u.)
CTTGCAGTTTCGGCCCGATGCACCGCCACGCGTATTTCCGCGGAGTCACCTAGTGCAG	11100 fluorescence intensity (a.u.)
GATGTTTCAGAGGTTTATTCACTTATACTGTTATAGTACACGGAGTCACCTAGTGCAG	9760 fluorescence intensity (a.u.)
TTATTTCATTCCTTTGCAGCAGTATCCATGTTGAGGTTATCGGAGTCACCTAGTGCAG	14000 fluorescence intensity (a.u.)
TTGGCATCAATCTATACAACTATCTCTACATGCTGCAGAACGGAGTCACCTAGTGCAG	8530 fluorescence intensity (a.u.)
TGCCACACGTCGCCGGTCATTACGAACACGCACCTTTAACCGGAGTCACCTAGTGCAG	8160 fluorescence intensity (a.u.)
